Measured values published in paper PMC8484605, “A complex of BRCA2 and PP2A-B56 is required for DNA repair by homologous recombination” (Nature Communications, 2021).
No constants are given. Whether binding was seen depends on the method and setting. Some binding calls cover weakened binding; strength is not graded here. Tags and fused reporters may be left off the sequences shown.

By UniProt entry, the sequences of proteins in these tests, tags left out.
UniProt Q15172: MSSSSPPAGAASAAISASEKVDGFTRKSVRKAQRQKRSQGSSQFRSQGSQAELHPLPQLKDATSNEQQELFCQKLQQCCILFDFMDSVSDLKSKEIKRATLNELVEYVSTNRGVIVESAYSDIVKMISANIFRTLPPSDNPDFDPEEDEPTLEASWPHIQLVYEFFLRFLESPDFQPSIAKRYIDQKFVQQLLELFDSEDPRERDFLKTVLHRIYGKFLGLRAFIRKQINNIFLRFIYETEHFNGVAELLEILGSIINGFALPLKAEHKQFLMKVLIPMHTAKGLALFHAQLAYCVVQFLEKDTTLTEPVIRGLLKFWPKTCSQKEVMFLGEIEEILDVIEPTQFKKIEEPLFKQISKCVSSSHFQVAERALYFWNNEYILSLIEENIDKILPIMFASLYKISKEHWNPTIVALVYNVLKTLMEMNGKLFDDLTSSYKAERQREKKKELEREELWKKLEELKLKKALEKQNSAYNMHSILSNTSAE

Molecular target: T1, His-tagged B56α (UniProt Q15172 1-486)
T1 construct: source: E. coli BL21 Rosetta2 (DE3) R3 T1, purified (Ni column, Superdex 200)
Test: SEC; 100 μg B56α incubated with 40 μg GST or GST-BRCA2 1089-1143 in 150 mM NaCl, 25 mM Tris 8.0, 10% glycerol, 1 mM DTT; Superdex 200 10/300; fractions on SDS-PAGE, Coomassie; both purified

B1: GST-BRCA2^1089–1143 WT (domain or fragment, UniProt P51587 1089-1143)
chain: QMLFSKQDFNSNHNLTPSQKAEITELSTILEESGSQFEFTQFRKPSYILQKSTFE
  binding: binds
